No constants are given. Whether binding was seen depends on the method and setting. In cells and extracts the contact can be indirect. Some binding calls cover weakened binding; strength is not graded here.
Molecular target: Tyrosine-protein phosphatase nonreceptor type 13 (PTPN13), endogenous (human (endogenous in human HCC cell lines)) (UniProt Q12923)
Experiment: co-IP; CoIP of endogenous proteins; data not shown

The chains behind the UniProt entries cited, without tags or fusion partners.
UniProt Q12923: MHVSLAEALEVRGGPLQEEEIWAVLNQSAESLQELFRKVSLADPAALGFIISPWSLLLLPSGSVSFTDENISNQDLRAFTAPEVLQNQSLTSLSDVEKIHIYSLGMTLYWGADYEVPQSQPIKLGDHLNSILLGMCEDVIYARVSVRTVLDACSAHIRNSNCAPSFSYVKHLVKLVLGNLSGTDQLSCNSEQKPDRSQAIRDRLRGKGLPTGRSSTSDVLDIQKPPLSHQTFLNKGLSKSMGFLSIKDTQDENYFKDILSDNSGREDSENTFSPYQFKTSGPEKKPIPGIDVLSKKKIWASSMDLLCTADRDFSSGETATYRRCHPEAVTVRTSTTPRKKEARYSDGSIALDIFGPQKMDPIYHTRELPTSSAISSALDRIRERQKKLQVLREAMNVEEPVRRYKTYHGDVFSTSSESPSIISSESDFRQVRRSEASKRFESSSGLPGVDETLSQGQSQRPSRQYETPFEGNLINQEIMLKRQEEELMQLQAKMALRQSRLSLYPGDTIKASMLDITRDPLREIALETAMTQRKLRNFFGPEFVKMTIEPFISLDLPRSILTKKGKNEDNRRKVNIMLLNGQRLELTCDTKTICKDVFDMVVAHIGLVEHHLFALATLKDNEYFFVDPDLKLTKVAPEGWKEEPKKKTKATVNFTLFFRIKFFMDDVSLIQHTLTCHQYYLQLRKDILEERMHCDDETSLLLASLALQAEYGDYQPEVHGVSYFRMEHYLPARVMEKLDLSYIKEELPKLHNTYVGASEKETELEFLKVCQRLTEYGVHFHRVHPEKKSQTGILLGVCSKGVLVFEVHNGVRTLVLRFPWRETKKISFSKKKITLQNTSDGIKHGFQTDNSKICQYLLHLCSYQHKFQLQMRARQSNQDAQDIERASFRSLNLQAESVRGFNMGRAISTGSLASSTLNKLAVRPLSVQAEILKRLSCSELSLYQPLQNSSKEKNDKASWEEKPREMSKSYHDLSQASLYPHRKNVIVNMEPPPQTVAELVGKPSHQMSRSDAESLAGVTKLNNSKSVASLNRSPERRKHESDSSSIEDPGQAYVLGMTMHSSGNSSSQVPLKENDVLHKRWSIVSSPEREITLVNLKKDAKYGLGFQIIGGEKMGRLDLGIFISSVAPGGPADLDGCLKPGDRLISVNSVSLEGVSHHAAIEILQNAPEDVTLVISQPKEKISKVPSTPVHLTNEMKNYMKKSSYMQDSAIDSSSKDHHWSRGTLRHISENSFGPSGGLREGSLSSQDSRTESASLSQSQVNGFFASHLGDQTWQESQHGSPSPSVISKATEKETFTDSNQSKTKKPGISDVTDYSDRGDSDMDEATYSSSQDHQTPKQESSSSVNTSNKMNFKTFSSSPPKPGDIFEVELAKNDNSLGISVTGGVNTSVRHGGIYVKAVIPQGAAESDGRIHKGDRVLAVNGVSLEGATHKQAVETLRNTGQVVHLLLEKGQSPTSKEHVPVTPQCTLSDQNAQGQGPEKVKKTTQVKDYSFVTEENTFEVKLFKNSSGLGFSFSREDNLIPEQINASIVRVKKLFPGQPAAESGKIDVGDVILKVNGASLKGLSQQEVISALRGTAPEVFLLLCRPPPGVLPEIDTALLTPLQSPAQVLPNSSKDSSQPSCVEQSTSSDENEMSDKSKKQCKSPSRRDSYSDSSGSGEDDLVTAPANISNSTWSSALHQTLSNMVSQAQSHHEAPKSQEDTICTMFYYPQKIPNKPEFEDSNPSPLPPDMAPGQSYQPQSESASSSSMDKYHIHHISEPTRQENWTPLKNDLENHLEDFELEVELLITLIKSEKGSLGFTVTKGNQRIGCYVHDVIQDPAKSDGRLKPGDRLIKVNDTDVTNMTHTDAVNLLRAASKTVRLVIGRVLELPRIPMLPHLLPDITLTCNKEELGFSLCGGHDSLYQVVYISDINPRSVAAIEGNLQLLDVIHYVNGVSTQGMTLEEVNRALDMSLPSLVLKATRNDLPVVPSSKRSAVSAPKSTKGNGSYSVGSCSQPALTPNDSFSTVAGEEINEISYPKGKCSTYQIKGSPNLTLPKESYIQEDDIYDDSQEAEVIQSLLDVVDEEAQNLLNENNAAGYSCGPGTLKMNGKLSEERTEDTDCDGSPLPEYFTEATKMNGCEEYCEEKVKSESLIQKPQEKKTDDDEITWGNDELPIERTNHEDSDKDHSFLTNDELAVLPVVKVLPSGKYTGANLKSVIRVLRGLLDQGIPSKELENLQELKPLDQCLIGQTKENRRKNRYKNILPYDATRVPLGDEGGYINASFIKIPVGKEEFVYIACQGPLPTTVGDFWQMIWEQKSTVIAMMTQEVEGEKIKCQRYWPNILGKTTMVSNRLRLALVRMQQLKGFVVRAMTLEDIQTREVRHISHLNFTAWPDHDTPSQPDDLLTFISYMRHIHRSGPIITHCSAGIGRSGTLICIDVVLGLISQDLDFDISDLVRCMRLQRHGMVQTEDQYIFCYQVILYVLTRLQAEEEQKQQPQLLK
UniProt O00425: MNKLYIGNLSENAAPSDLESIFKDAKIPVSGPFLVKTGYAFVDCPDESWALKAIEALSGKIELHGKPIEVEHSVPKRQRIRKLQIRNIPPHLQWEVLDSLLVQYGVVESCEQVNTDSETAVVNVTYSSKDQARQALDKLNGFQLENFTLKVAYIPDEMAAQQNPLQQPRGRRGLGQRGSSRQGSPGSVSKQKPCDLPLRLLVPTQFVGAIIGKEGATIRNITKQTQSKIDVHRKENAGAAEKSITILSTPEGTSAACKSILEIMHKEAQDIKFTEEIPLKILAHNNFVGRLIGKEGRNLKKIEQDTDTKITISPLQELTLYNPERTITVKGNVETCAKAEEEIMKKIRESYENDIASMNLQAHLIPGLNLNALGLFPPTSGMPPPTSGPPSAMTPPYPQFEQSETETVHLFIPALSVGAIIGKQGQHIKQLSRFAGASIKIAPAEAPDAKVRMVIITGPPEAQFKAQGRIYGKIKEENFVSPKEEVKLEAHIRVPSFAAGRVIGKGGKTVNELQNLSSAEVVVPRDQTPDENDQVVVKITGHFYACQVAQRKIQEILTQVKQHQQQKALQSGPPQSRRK
UniProt P14618: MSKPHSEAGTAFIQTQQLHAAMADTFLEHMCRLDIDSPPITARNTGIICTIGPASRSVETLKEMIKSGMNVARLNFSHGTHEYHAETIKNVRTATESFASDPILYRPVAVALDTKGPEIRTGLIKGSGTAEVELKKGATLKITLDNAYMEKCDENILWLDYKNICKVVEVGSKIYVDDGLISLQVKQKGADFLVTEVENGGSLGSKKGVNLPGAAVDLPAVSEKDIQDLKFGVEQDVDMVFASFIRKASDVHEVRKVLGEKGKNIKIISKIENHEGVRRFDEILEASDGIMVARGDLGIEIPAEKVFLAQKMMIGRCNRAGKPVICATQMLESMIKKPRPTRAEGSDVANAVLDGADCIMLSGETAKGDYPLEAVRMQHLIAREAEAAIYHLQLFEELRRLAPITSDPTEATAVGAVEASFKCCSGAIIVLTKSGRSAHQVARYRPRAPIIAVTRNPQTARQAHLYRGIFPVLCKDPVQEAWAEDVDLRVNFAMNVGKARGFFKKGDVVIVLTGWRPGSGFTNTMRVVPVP

binding | Substance
binds | IGF2BP3, endogenous (from UniProt O00425 1-579)
binds | PKM, endogenous (from UniProt P14618 1-531) (enzyme)

From publication PMC7790756
